## Primary screen of a compound library

Sequences of proteins named here, by UniProt entry; tags and fusion partners are left off. Residues count along the entry.
UniProt Q4DA54, 1-478: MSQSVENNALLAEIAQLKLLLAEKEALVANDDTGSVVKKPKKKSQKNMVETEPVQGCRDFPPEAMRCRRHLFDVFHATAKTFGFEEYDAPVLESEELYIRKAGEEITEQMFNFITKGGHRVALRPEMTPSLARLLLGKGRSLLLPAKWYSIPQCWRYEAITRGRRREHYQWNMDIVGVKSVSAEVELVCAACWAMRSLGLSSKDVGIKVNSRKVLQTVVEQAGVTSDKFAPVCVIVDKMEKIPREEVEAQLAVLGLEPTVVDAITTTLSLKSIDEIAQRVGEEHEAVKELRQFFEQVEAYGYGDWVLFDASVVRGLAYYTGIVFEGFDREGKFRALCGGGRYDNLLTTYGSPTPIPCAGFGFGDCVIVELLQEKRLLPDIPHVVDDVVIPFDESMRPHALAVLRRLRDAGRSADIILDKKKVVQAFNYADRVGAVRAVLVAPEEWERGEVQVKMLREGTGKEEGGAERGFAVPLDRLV

A: 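Assay of Toxoplasma gondii numbers, read through their beta-galactosidase reporter with a colour substrate. Tested at 10 µM. Higher reads as fewer parasites (inferred from which compounds were picked for retests). Size under these conditions: about 67,000 compounds, about 260 of them at 50% or above in at least one test.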
B: 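Histidine-tRNA ligase, Trypanosoma cruzi CL Brener (UniProt Q4DA54). Enzyme assay of histidyl-tRNA synthetase; the read-out is not stated. Concentration: 30 µM. The record gives no direction; compounds that gave an IC50 in retests scored well above the rest, so higher reads as stronger inhibition. About 69,000 compounds were tested under these conditions; 0.045% (about 31) showed 50% or more at least once.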

The filed quantity is “Percent Effect” (%).
The record does not define 0% and 100%; most values in the screen are far below 50% and negative numbers occur (in some assays of this library far below -100).
Compounds were drawn at random from those tested, without regard to their results.
A dash means the value is not listed here; it may have been measured.

compound | A | B
CCC(C)(C)NC(=O)CN(Cc1cccc(O)c1)C1CCC(O)CC1 (centres unmarked) | 6.02 | 7.027
Cc1cccc(N2CCN(C(=O)Cc3ccccc3O)C(C)C2)n1 (centres unmarked) | -16.28 | 3.659
O=C(CN1CCc2ccccc21)NCc1ccc(Cl)cc1 | -6.068 | 1.97
Cn1cnnc1S(=O)(=O)C1CCN(S(=O)(=O)C2CC2)CC1 | 0.8758 | 5.785
CCN(CC(=O)NC)S(=O)(=O)N1CCCCCC1 | -0.9038 | 0.8475
COCCN1CCOCC12CCN(C(=O)c1cccnc1)CC2 | - | 5.882
CNC(=O)c1ccc(NC(=O)NC(C)c2cc(C)oc2C)cc1 (centres unmarked) | - | 9.195
CS(=O)(=O)NCC1CCCN(Cc2ccc(F)c3cccnc23)C1 (centres unmarked) | 16.21 | 3.347
COCCNC(=O)CN1CCC(N2CCN(C)C2=O)CC1 | 1.325 | 1.714
Cc1nn(C)c(N2CCOCC2)c1CNCc1cscn1 | 4.499 | 4.734
Cn1c(CN2CCOCC2)cc(=O)c(O)c1CN1CCCC1 | 20.32 | 6
COc1ccc(CCCC(=O)N2CCCC(n3cncn3)C2)cc1 (centres unmarked) | -6.81 | 11.52
O=C(CSCC1CC1)N1C[C@@H]2CC[C@H](C1)N(Cc1ccccn1)C2=O | - | -6.977
CN(C)C(=O)Cc1ccc(NC(=O)NC2CCCCC2)cc1 | 27.01 | 2.5
Cc1ncccc1C(=O)NCc1ccccc1CN(C)Cc1ccco1 | -4.046 | 0
Cc1oncc1C(=O)N1CC2CC1(C(=O)NCc1ccco1)C2 | -23.31 | 0
Cl.O=C(NCc1ccc(Cl)cc1)C1=NOC2(CCNC2)C1 (centres unmarked) | 5.767 | -
COc1ccccc1C1(CNC(=O)NCc2noc(C)n2)CC1 | 11.46 | 5.208
CCc1nc2n(n1)CC(NCC(=O)Nc1cc(C)nn1C)CC2 (centres unmarked) | 1.755 | 5.848
c1ccc(CN2CCCC2Cn2cncn2)nc1 (centres unmarked) | - | 9.774
CCCS(=O)(=O)N1Cc2nccn2CC(CN(C)C)C1.O=C(O)C(F)(F)F (centres unmarked) | 3.876 | -
N#Cc1ccc(F)cc1Cn1cnc(C2CCC2)cc1=O | 24.09 | 4.327
Cc1n[nH]c(C)c1CCc1ccc(S(C)(=O)=O)cc1 | -35.69 | 5.455
COc1ccc(CNC(Cc2cccs2)c2nc(C)c(C)s2)cc1OC (centres unmarked) | - | 1.493
Cc1ccc(C(=O)N2CCCc3c(c(=O)n(C)n3C)C2)o1 | 9.594 | 0
CCn1nc(C)c2c1cnn2CCNS(=O)(=O)c1ccccc1 | -26.27 | 12.95
COCCCN1CCCN(C(C)C(=O)Nc2ccnn2C(C)C)CC1 (centres unmarked) | 10.65 | -1.604
CCCC1C=CCN1C(=O)c1cc(COc2ccc3c(c2)OCO3)[nH]n1 (centres unmarked) | 12.57 | 21.39
[H][C@@]12CN(Cc3ccccc3F)C[C@]1([H])N(CCCN1CCOCC1)C(=O)O2 | -25.13 | -
CCc1c(C)nc2n(c1=O)CC(C(=O)Nc1ncccc1C)CS2 (centres unmarked) | -2.227 | 6
COCC1CN(C(=O)COc2ccccc2)Cc2cn(C)nc21 (centres unmarked) | - | 2.174
CN(C)c1ncc2c(c1C(=O)O)CCN(Cc1ccco1)C2.O=C(O)C(F)(F)F.O=C(O)C(F)(F)F | 10.06 | -
CCOCC1CN(Cc2cnn(C)c2)Cc2ncn(CC3CC3)c21 (centres unmarked) | -6.576 | 4.918
Cc1cc(Br)ccc1C(=O)Nc1c(C(N)=O)n[nH]c1C | 4.36 | 2.762
CCNc1cc2c(nn1)CCN(C(=O)c1ccc(-n3cnnc3)cc1)C2 | -6.123 | 5.325
CCN(CC)C(=O)[C@@H]1C[C@@H](N)CN1c1nc(N(C)C)nc(C)c1C | -0.2582 | 0.6452
CCOC1CCCN(C(=O)c2sccc2-n2cnnn2)C1 (centres unmarked) | 1.88 | 3.817
CN(C)C(=O)N1CCc2c(nnn2C)C1COCc1ccccc1 (centres unmarked) | 1.175 | 2.703
CCOCCN1CCC(C(=O)c2cc(F)ccc2F)CC1 | 6.733 | 7.018
Cc1cc(C(=O)NCc2ccccn2)no1 | 0.8616 | -0.7519
Cc1noc(C)c1-c1cncc(C2CCCN2Cc2cncnc2)n1 (centres unmarked) | 1.608 | 2.732
Cn1cc(Cl)c(CN2CCn3nc(C(=O)Nc4ccccc4)cc3C2)n1 | -8.696 | 4.04
c1ccc(-c2nc(CN3CCOC(Cn4cccn4)C3)cs2)cc1 (centres unmarked) | 8.494 | 3.093
[H][C@@]12CCN(Cc3nccs3)[C@]1([H])CC[C@H](C(=O)NCC1CC1)O2 | 1.337 | -
CC(C)CNC(=O)c1nnsc1-c1ccccc1 | -34.42 | 0.4464
Cc1cc(C(F)F)nn1C(C)C(=O)NCc1ncc[nH]1 (centres unmarked) | 14.83 | 3.788
CCn1nnnc1-c1cccc(NC(N)=O)c1 | -13.85 | 1.053
CN(C)c1cc(CNC(=O)c2c(F)cccc2F)ccn1 | -11.95 | 3.458
Cc1cc(CNCC2CNc3ccnn3C2)no1 (centres unmarked) | 15.99 | 0
[H][C@@]12CS(=O)(=O)C[C@]1([H])N(Cc1cccc(C#N)c1)CCN2C(=O)C1CCC1 | 0.4219 | -
CCc1nnc(CNC(=O)CCC2CCCCN2C)s1 (centres unmarked) | -7.788 | -2.646

The first 5 entries again:

compound	A	B
CCC(C)(C)NC(=O)CN(Cc1cccc(O)c1)C1CCC(O)CC1 (centres unmarked)	6.02	7.027
Cc1cccc(N2CCN(C(=O)Cc3ccccc3O)C(C)C2)n1 (centres unmarked)	-16.28	3.659
O=C(CN1CCc2ccccc21)NCc1ccc(Cl)cc1	-6.068	1.97
Cn1cnnc1S(=O)(=O)C1CCN(S(=O)(=O)C2CC2)CC1	0.8758	5.785
CCN(CC(=O)NC)S(=O)(=O)N1CCCCCC1	-0.9038	0.8475

Measurements from “University of Dundee, Small-Polar-MMV Screening Library” (2021), ChEMBL document CHEMBL3988442.